± gives the standard deviation of the averaged measurements.
How the values were obtained:
Experiment in all cases: drug sensitivity score (DSS) (DSS score); higher = more sensitive (stronger growth inhibition); extreme values may be limits of the assay
[1] = system: Ba/F3 P210-BCR-ABL1 RUNX1-/- (mouse)
Summary of the method: (§1)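 A drug sensitivity score summarised each dose-response curve, with luminescence from CellTiter-Glo scaled between vehicle and positive-control wells. Values are the mean of two replicates. The cells were mouse Ba/F3 clones that were CRISPR/Cas9-edited at a target exon or were edited controls, exposed on pre-printed 384-well plates to a 528-compound library at five concentrations spanning a 10,000-fold range. Plates held 10,000 cells per well in RPMI with 10% FBS for 72 h at 37 °C and 5% CO2.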

[2] = system: Ba/F3 P210-BCR-ABL1 RUNX1-/mut (mouse)
Summary of the method: as §1

[3] = system: Ba/F3 P210-BCR-ABL1 RUNX1wt/wt control (mouse)
Summary of the method: as §1

C[C@@H]1C[C@H](N)C[C@H](c2ccncc2NC(=O)c2ccc(F)c(-c3c(F)cccc3F)n2)C1 [PIM-447]
drug sensitivity score [1]: 22.6 ± 2.5 | drug sensitivity score [2]: 12.8 ± 4.7 | drug sensitivity score [3]: 5.75 ± 0.92

— the supplement of paper PMC8024199
